Reference: ChEMBL document CHEMBL1926568, “Synthesis, biological evaluation and mechanistic studies of totarol amino alcohol derivatives as potential antimalarial agents” (Bioorg Med Chem, 2012)

Legend:
[1] = tested on: Plasmodium falciparum; test: Antiplasmodial activity against chloroquine-sensitive Plasmodium falciparum D10 after 48 hrs by lactate dehydrogenase assay; assay type: functional, organism-based; settings: D10, 48 h
Procedure, shortened: (§1)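 P. falciparum D10 (CQ-sensitive) and K1 (CQ-resistant) kept in continuous in vitro culture, synchronized with 5% D-sorbitol at ring stage when needed; growth read by parasite lactate dehydrogenase assay; each compound run in duplicate on two separate occasions.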

[2] = tested on: Plasmodium falciparum; test: Antiplasmodial activity against chloroquine-resistant Plasmodium falciparum K1 after 48 hrs by lactate dehydrogenase assay; assay type: functional, organism-based; settings: K1, 48 h; procedure, shortened: as §1
[3] = tested on: Plasmodium falciparum; test: Resistance index, ratio of IC50 for chloroquine-resistant Plasmodium falciparum K1 to IC50 for chloroquine-sensitive Plasmodium falciparum D10; assay type: functional
Procedure, shortened: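 Resistance index computed as IC50 (K1)/IC50 (D10), both from the pLDH assay, each run in duplicate on two separate occasions.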

[4] = tested on: CHO; test: Cytotoxicity against CHO cells after 48 hrs by MTT assay; assay type: cell-based; settings: Cricetulus griseus
Procedure, shortened: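 CHO cells in DMEM:Ham's (1:1) with 10% heat-inactivated FCS and gentamicin, 37 °C, 5% CO2; 1×10^4 cells/well seeded 24 h, then serial dilutions from DMSO stocks (100–0.01 µg/ml) for 48 h, with medium and DMSO controls.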

CC(C)NCC(O)COc1cccc2ccccc12 (racemic) [PROPRANOLOL]
IC50 [1]: 37.7 µM
IC50 [2]: 10.2 µM
Ratio IC50 [3]: 0.27
IC50 [4]: > 300 µM
